These results are taken from article PMC4381594.

Results are given in words; binding and its absence hold for the method and conditions named. Binding seen in cells or lysates may run through a third protein. Binding can be weak; no strength is given.

For this experiment, the target named is GCN5-Y260A/F261A (HAT-inactive GCN5 mutant) (human). In words: co-IP; 293T cells co-transfected with expression plasmids; lysates; IP with anti-GCN5 antibody, Western blot with anti-XBP-1 or anti-HA; normal IgG as control. On the technique in general: A western blot detects proteins with antibodies after separation by electrophoresis.

B1: XBP-1S, the active isoform of X-box binding protein 1 (protein, UniProt P17861-2 1-376)
chain: MVVVAAAPNPADGTPKVLLLSGQPASAAGAPAGQALPLMVPAQRGASPEAASGGLPQARKRQRLTHLSPEEKALRRKLKNRVAAQTARDRKKARMSELEQQVVDLEEENQKLLLENQLLREKTHGLVVENQELRQRLGMDALVAEEEAEAKGNEVRPVAGSAESAAGAGPVVTPPEHLPMDSGGIDSSDSESDILLGILDNLDPVMFFKCPSPEPASLEELPEVYPEGPSSLPASLSLSVGTSSAKLEAINELIRFDHIYTKPLVLEIPSETESQANVVVKIEEAPLSPSENDHPEFIVSVKEEPVEDDLVPELGISNLLSSSHCPKPSSCLLDAYSDCGYGGSLSPFSDMSSLLGVNHSWEDTFANELFPQLISV
Consider B1, for which the binding result is “binds”.
